This note sets out measurements from PubChem BioAssay AID2685 (National Center for Advancing Translational Sciences (NCATS), 2010).

The test in a line: qHTS Assay for Lipid Storage Modulators in Drosophila S3 Cells.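 On cell number change: cells counted by Cell Tracker Red CMTPX staining in the red channel.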 The note with it: BODIPY lipid droplet fluorescence, 18-24 h; for cell number change: measured here: cell count max response, cells fed with added oleic acid. A digest of the protocol: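 Laser-scanning cytometry quantifies lipid droplet accumulation (500–530 nm total intensity; droplet/cell object ratio) in oleic acid-fed (400 uM added) Drosophila S3 cells treated with a concentration series. 20 uM Triacsin C defined 100% inhibition.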

Where [1] appears, read: measured here: lipid fluorescence (Fed channel) AC50, cells fed with added oleic acid.
Where [2] appears, read: measured here: cell number channel AC50, cells fed with added oleic acid.

The structures appear in SMILES notation. The list shows a part of the results. The main result of the screen is listed elsewhere. These columns were measured beside it and carry no call. The list favours compounds with an active or inconclusive main result. Potencies come from curve fits of mixed quality, noted in brackets.

Consider `N#CCSc1nnc(COc2ccccc2)n1-c1ccccc1`, for which the cell number change is -21.7%. Besides, under setting [1], the AC50 was 29.1 µM [falling, single point].

On to `COC(=O)Cn1cc(S(=O)(=O)NCc2ccc(C)cc2)c2cc([N+](=O)[O-])ccc21`, for which the cell number change was found to be 24.3%. Besides, under setting [2], the AC50 is 0.82 µM [rising, full curve, poor fit].

As to `CCCC(c1nnnn1Cc1ccc2c(c1)OCO2)N1CCC(C(N)=O)CC1` (stereo unspecified), the cell number change was -13.1%. The AC50 under setting [2] was 6.51 µM [falling, single point]. The AC50 under setting [1] was 7.31 µM [falling, single point].

Take `O=C(CN(C(=O)CNS(=O)(=O)c1ccc(F)cc1)c1ccc(F)cc1)NCc1ccco1`: the cell number change was -19.2%. In addition, under setting [2], the AC50 was 0.0082 µM [falling, full curve, poor fit]. Also, under setting [1], the AC50 was 5.17 µM [falling, single point].

On to `Oc1c(C=Nc2cccc3cccnc23)sc2ccccc12`, for which the cell number change was -19.9%.

On to `CCOC(=O)/C(=C/c1ccc(N2CCC(c3ccccc3)=N2)cc1)C(C)=O`, for which the cell number change was 19.5%. For the same compound, the AC50 under setting [2] is 3.66 µM [rising, partial curve, poor fit]. For the same compound, the AC50 under setting [1] was 1.84 µM [rising, full curve, poor fit].

Regarding `Nc1nccnc1C(=O)OCC(=O)NCCc1ccc(Cl)cc1`, the cell number change was -39.6%. For the same compound, the AC50 under setting [2] was 0.184 µM [falling, full curve]. In addition, under setting [1], the AC50 is 0.13 µM [falling, full curve, poor fit].

As to `CN1c2ccc([N+](=O)[O-])cc2N(C)C1(C)c1ccccc1` (stereo unspecified), the cell number change is -44.2%. In addition, the AC50 under setting [2] is 29.1 µM [falling, single point]. For the same compound, the AC50 under setting [1] is 6.51 µM [falling, partial curve].

For `C/C(CC(=O)Nc1ccc(Cl)cc1Cl)=N\NC(=O)c1cnccn1`, the cell number change was found to be 23.4%.

On to `CCCCN(C(=O)c1ccc(N(C)S(=O)(=O)c2ccc(C)cc2)cc1)c1c(N)n(CCCC)c(=O)[nH]c1=O`, for which the cell number change was 19.9%. In addition, the AC50 under setting [1] was 14.6 µM [rising, single point].

In the case of `CC(C)(C)c1ccc(C(=O)NNC(=S)NCC2CCCO2)cc1` (stereo unspecified), the cell number change is 0.705%. The AC50 under setting [1] is 18.4 µM [rising, single point].

Regarding `O=C(COC(=O)c1ccc(S(=O)(=O)N2CCOCC2)cc1)NC1CCCC1`, the cell number change was -21.6%. Also, the AC50 under setting [1] is 3.66 µM [falling, full curve].

As to `CCCc1nc(SCC(=O)NCc2ccco2)c2c(=O)n(C)c(=O)n(C)c2n1`, the AC50 under setting [2] is 0.082 µM [rising, full curve].

Turning to `Cc1nnc(NC(=O)c2cccc(S(=O)(=O)N3CCc4ccccc43)c2)s1`, the cell number change was 23.4%. In addition, the AC50 under setting [1] was 29.1 µM [rising, single point].

Consider `O=C(COc1ccccc1Cl)Nc1ccc2[nH]c(=O)[nH]c2c1`, for which the cell number change was 54.6%. In addition, the AC50 under setting [2] is 5.17 µM [rising, full curve]. Further, the AC50 under setting [1] is 18.4 µM [rising, partial curve].

Regarding `O=C(NC1CCCCCCC1)c1cc(COc2ccc3ncccc3c2)on1`, the cell number change is -33.8%. Also, the AC50 under setting [2] was 29.1 µM [falling, partial curve]. Also, under setting [1], the AC50 is 25.9 µM [falling, partial curve, poor fit].

On to `CN(C)c1ccc(C(CNS(=O)(=O)c2ccc(F)cc2)c2c[nH]c3ccccc23)cc1` (stereo unspecified), for which the AC50 under setting [1] was 18.4 µM [falling, single point].

As to `CN1C(=O)/C(=C/c2cn(CC(=O)N3CCCCC3)c3ccccc23)c2ccccc21`, the cell number change was -1.7%. The AC50 under setting [2] is 1.84 µM [rising, partial curve]. Also, the AC50 under setting [1] is 1.84 µM [rising, partial curve].

On to `O=C(O)c1ccc(N/N=C/c2cc(Br)cs2)cc1`, for which the cell number change turned out to be 18.5%. In addition, the AC50 under setting [1] was 14.6 µM [rising, single point].

Turning to `Cc1ccc(-n2nc3c(=O)n(C(C)C(=O)NCCC4=CCCCC4)nc(C)c3c2C)cc1` (stereo unspecified), the cell number change amounted to 2.64%.

For the compound `Cc1nc2ccc(S(=O)(=O)NCC(=O)NCCN3CCCCC3C)cc2s1` (stereo unspecified), the cell number change was -5.17%. Moreover, the AC50 under setting [1] was 6.51 µM [falling, single point].

On to `COc1ccc(S(=O)(=O)N2CCC(C(=O)NCc3ccc(C)cc3)CC2)cc1`, for which the cell number change was -14.1%.

For the compound `COC(=O)c1nn(Cc2ccccc2)c(=O)c2ccccc12`, the cell number change came to 71.2%. The AC50 under setting [2] is 8.2 µM [rising, partial curve]. For the same compound, the AC50 under setting [1] was 2.06 µM [rising, partial curve, poor fit].

In the case of `NNc1ccc(Cl)nn1`, the cell number change was 8.51%. For the same compound, the AC50 under setting [1] is 1.84 µM [rising, partial curve, poor fit].

On to `O=C(CSc1n[nH]c(-c2cccs2)n1)N1CCN(S(=O)(=O)c2ccccc2)CC1`, for which the cell number change is -27.4%. Further, under setting [1], the AC50 is 6.51 µM [rising, single point].

In the case of `CC(C)(C)C(=O)/C(=C\c1ccc([N+](=O)[O-])cc1)n1cncn1`, the cell number change was -64.3%. For the same compound, the AC50 under setting [2] was 10.3 µM [falling, partial curve]. Further, the AC50 under setting [1] was 6.51 µM [falling, partial curve].

Regarding `CN(CCC#N)C(=S)Nc1ccc(S(=O)(=O)N2CCOCC2)cc1`, the cell number change was determined as 87.3%. For the same compound, under setting [2], the AC50 is 0.116 µM [rising, full curve]. In addition, the half-maximal activity concentration (AC50) under setting [1] is 0.146 µM [rising, full curve].

`COc1cccc(N2CCN(C(=O)c3cc4ccc(OC)cc4[nH]3)CC2)c1`: the cell number change worked out at 2.59%. In addition, under setting [1], the AC50 was 0.082 µM [rising, full curve].

`COc1ccc(F)cc1S(=O)(=O)NCC1CCCO1` (stereo unspecified): the cell number change is 19.6%.

For the compound `CN1N=C(/C=C/c2ccccc2)CCC1=O`, the cell number change is 0.271%.

For the compound `CC1=NN(/C(=N\c2nnc(C)s2)Nc2ccc(C(C)(C)C)cc2)[C@H](c2ccc(C)cc2)S1`, the cell number change is -23.8%. Moreover, the AC50 under setting [1] was 23.1 µM [falling, single point].

As for `O=C(O)CC1SC(N/N=C/c2ccc(Br)cc2)NC1=O` (stereo unspecified), the cell number change was -30.2%. Further, the AC50 under setting [2] was 23.1 µM [falling, single point]. Moreover, the AC50 under setting [1] was 32.6 µM [falling, partial curve, poor fit].

With `COc1ccc(CN2CCN(Cc3cc(=O)oc4cc(C)ccc34)CC2)c(OC)c1OC`, the cell number change was 16.2%.

As to `O=C(CO/N=C/c1ccc2c(c1)OCO2)Nc1cccc(Br)c1`, the cell number change is 31.8%. For the same compound, the AC50 under setting [2] was 8.2 µM [rising, partial curve]. In addition, the AC50 under setting [1] was 0.231 µM [rising, full curve].

Turning to `Cc1ccc(C)c(OCCC(=O)OCC(=O)NC2CC2)c1`, the cell number change is -23.5%.

For `CNc1oc(-c2ccccc2Cl)nc1P(=O)(c1ccccc1)c1ccccc1`, the cell number change is -37.8%. The AC50 under setting [2] is 29.1 µM [falling, single point]. In addition, the AC50 under setting [1] is 29.1 µM [falling, single point].
